Assay results taken from US20040191815.
The exact form of at least one protein or probe is not confirmed. No signal at the amounts used counts as a negative. For some of these results: Weaker means in comparison with the reference protein, sequence or condition of that experiment.

Chains of the proteins cited; added tags and fusions are not shown. A line that says so, or that is headed by a name, gives the form on record, which may keep a tag or linker.
MafG homodimer, one chain, as listed by the source: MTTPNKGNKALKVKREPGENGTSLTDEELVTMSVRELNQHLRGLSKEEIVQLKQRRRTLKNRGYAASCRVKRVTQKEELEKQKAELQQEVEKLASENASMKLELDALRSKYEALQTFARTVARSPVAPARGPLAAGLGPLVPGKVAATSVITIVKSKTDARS

Columns and labels:
[1] = tested on: GATA-1; test: SPR; conditions: 5' thiol on anchor strand (immobilized)
[2] = tested on: MafG homodimer; test: SPR; conditions: 5' thiol on anchor strand (immobilized), variant of MARE 25

TTTTTTTTTTTTTTTCGGAATAGTAATTACG / CGTAATTATCATTCCG [GATA mut]
binding result ([1]; same buffer, substantially no binding, variant of GATA reg): no binding

TTTTTTTTTTTTTTTCGGAATCAATGACTCATTGTTACTC (double strand) [MARE23]
binding result ([2]; Example 1, 300 mM NaCl, substantially no binding): no binding | binding result ([2]; bonding strength stated as low, also N.D by GMSA): binds more weakly

TTTTTTTTTTTTTTTCGGAATGATAATTACG / CGTAATTATCATTCCG [GATA reg]
binding result ([1]; 20 mM Hepes, 300 mM NaCl, 0.2 mM ZnCl2, 0.005% Tween 20, pH 7.9, poly dIdC 100 ug/ml): binds
